Results: patent US20230399412A1 (NANJING IASO BIOTECHNOLOGY, published 2023)
No constants are given. Whether binding was seen depends on the method and setting. Some binding calls cover weakened binding; strength is not graded here. For some assays here: Sequences can lack the tags named with a protein.

How the values were obtained:
[1] = target: T1, CD70 on the cell surface of CD70-positive cell lines (UniProt P32970); assay: phage FACS on CD70-positive cell lines (Raji, U266)
T1 sequence (looked up): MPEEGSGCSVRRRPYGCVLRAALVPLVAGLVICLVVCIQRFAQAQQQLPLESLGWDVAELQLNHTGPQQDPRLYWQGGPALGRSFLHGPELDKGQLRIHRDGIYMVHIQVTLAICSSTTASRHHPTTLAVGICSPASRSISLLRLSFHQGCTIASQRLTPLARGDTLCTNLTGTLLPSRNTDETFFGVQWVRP

[2] = target: T2, Human CD70/CD27 Ligand Protein-his-Trimer (Kactus, CD7-HM271-1) (human) (UniProt P32970); assay: phage ELISA
T2 sequence (looked up): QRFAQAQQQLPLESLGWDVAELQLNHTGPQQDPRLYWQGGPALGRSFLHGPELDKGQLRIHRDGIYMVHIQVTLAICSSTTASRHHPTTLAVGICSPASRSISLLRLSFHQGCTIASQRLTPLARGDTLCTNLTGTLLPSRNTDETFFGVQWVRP

[3] = target: T3, CD70 Protein, Human, Recombinant (human FC Tag) (Sino Biological, 10780-H01H) (human) (UniProt P32970); assay: phage ELISA
T3 sequence (looked up): T2 sequence (looked up)

[4] = target: T4, Biotinylated Human CD27 Ligand, Avitag, human Fc Tag (ACRO biosystem, TN7-H82F4) (human) (UniProt P32970); assay: phage ELISA
T4 sequence (biotinylated (Avitag), looked up): T2 sequence (looked up)

[5] = target: T5, Human CD70/CD27 Ligand Protein (human FC Tag)-Biotin (Kactus, CD7-HM270) (human) (UniProt P32970); assay: phage ELISA
T5 sequence (biotinylated, looked up): T2 sequence (looked up)

[6] = target: T6, Biotinylated Human CD27 Ligand, HIS, Avitag (ACRO biosystem, CDL-H82Q9) (human) (UniProt P32970); assay: phage ELISA
T6 sequence (biotinylated (Avitag), looked up): T2 sequence (looked up)

[7] = target: T7, Human CD70/CD27 Ligand Protein-his-Trimer-Biotin (Kactus, CD7-HM271) (human) (UniProt P32970); assay: phage ELISA
T7 sequence (biotinylated, looked up): T2 sequence (looked up)

B1: phage monoclonal antibody clone #13 (VHH)
VHH: EVQLLESGGGLVQPGGSLRLSCAASGFTFSSEAMGWVRQAPGKGLEWVSSINGSGRNTYYADSVKGRFTISRDNSKNTLYLQMNSLRAEDTAVYYCARKHGEYYDSGYDVWGQGTLVTVSS
notes: single-domain antibody (heavy chain variable region alone); also called VHH13; VHH 13
[1]
  binding: binds
[2]
  binding: binds
[3]
  binding: binds
[4]
  binding: binds
[5]
  binding: binds
[6]
  binding: binds
[7]
  binding: binds

B2: phage monoclonal antibody clone #20 (VHH)
VHH: EVQLLESGGGLVQPGGSLRLSCAASGFTFSSYAMGWVRQAPGKGLEWVSSISGYGEETYYADSVKGRFTISRDNSKNTLYLQMNSLRAEDTAVYYCARFYYRYWKEFDYWGQGTLVTVSS
notes: single-domain antibody (heavy chain variable region alone); also called VHH20; VHH 20
[3]
  binding: binds

B3: phage monoclonal antibody clone #9 (VHH)
VHH: EVQLLESGGGLVQPGGSLRLSCAASGFTFNIDAMGWVRQAPGKGLEWVSSISSSGGTTYYADSVKGRFTISRDNSKNTLYLQMNSLRAEDTAVYYCARSRYSVPDGRGSYDVWGQGTLVTVSS
notes: single-domain antibody (heavy chain variable region alone); also called VHH 09; 09 antibody
[3]
  binding: binds

B4: phage monoclonal antibody clone #21 (VHH)
VHH: EVQLLESGGGLVQPGGSLRLSCAASGFTFSNYAMGWVRQAPGKGLEWVSSITGLGGNMYYADSVKGRFTISRDNSKNTLYLQMNSLRAEDTAVYYCARMYYSQGVNNYSYPSTDIWGQGTLVTVSS
notes: single-domain antibody (heavy chain variable region alone); also called VHH21; VHH 21
[3]
  binding: binds

B5: phage monoclonal antibody clone #6 (scFv)
scFv: QAVLTQPPSASATPGQRVSISCSGSSSNIGRNTVNWYQHLPGTAPKLLIYSNDHRPSGVPDRFSGSQSGTSASLAISGLQSEDEADYYCASWDDSLTGWVFGGGTKVTVLGSRGGGGSGGGGSGGGGSLEMAQVQLVQSGAEVKKAGSSLKVSCKANGGSFTNYLINWVRQAPGQGLEWMGGIIPVYGTPIYSQKFQGRVTFTADEPTRTAYMELSSLTFEDTAVYYCVREDEGYGDLYLAYWGQGTLVTVSS
notes: also called scFv 06; Scfv06
[3]
  binding: binds
